Data reported in the supplement of paper PMC4683952.
Where a name gives a salt, the structure may show the parent alone. About 50 (4%) of roughly 1,200 compounds showed activity. Rule as the data show it: all actives reach 1.3 or more but so do some inactives. The list shows a part of the results.

Test system: Lgr5 (MarsCy1-Lgr5-EGFP, U2OS)
Assay: cell-surface Lgr5 expression (SCi1 fluorescence, background-subtracted) relative to WT DMSO (fold of DMSO control); higher = more Lgr5 at the plasma membrane, active = hit call of the paper
Details: U2OS MarsCy1-Lgr5-EGFP stable; treatment time: overnight; 16 µM; library: Johns Hopkins Clinical Compound Library

Structure (SMILES) | cell-surface Lgr5 expression
O=C(O)c1ccc(NC(=O)[C@H](Cc2ccc(O)cc2)NC(=O)c2ccccc2)cc1 | inactive: 1.04
CN(C)CC[C@@H](c1ccc(Br)cc1)c1ccccn1 (racemic) [Brompheniramine (+/-)-] | inactive: 1.15
[F-].[Na+] [Sodium fluoride] | inactive: 0.593
CC1(C)S[C@@H]2[C@H](NC(=O)COc3ccccc3)C(=O)N2[C@H]1C(=O)O [Penicillin V (phenoxymethyl penicillinic acid)] | inactive: 1.08
CC1(C)S[C@@H]2[C@H](NC(=O)COc3ccccc3)C(=O)N2[C@H]1C(=O)O | inactive: 0.694
Cc1nnc(SCC2=C(C(=O)O)N3C(=O)[C@@H](NC(=O)Cn4cnnn4)[C@H]3SC2)s1 [Cefazolin] | inactive: 1.16
c1ccc2c(c1)ccc1ccccc12 [Phenanthrene] | inactive: 1.28
O=c1[nH]c(=O)n([C@H]2C[C@H](O)[C@@H](CO)O2)cc1C(F)(F)F [Trifluridine] | inactive: 0.463
Cc1cc2nc3c(=O)[nH]c(=O)nc-3n(C[C@H](O)[C@H](O)[C@H](O)COP(=O)(O)OP(=O)(O)OC[C@H]3O[C@@H](n4cnc5c(N)ncnc54)[C@H](O)[C@@H]3O)c2cc1C [Flavin adenine dinucleotide] | inactive: 1.01
S=c1[nH]cnc2nc[nH]c12 [6-Mercaptopurine monohydrate] | active: 1.67
C=N[C@@H](C(=O)N[C@@H]1C(=O)N2[C@@H]1SC(C)(C)[C@@H]2C(=O)O)c1ccccc1 [Metampicillin] | inactive: 0.953
Cc1cccc(Nc2ccncc2S(=O)(=O)NC(=O)NC(C)C)c1 [Torsemide] | inactive: 1.04
COc1cc2c(cc1OC)-c1c/c(=N\c3c(C)cc(C)cc3C)n(C)c(=O)n1CC2 [Trequinsin hydrochloride] | inactive: 0.962
NC1=NCC2c3ccccc3Cc3ccccc3N12 (stereo unspecified) [Epinastine hydrochloride] | inactive: 1.1
CC(C)Cn1cnc2c(N)nc3ccccc3c21 [Imiquimod] | inactive: 1.06
CC[C@H](C)[C@H](NC(=O)CN)C(=O)N[C@H](C(=O)N[C@@H](CCC(=O)O)C(=O)N[C@@H](CCC(N)=O)C(=O)N[C@H]1CSSC[C@@H]2NC(=O)[C@H](C(C)C)NC(=O)[C@H](CO)NC(=O)[C@H](C)NC(=O)[C@H](CSSC[C@H](NC(=O)[C@H](CC(C)C)NC(=O)[C@H](Cc3cnc[nH]3)NC(=O)[C@H](CCC(N)=O)NC(=O)[C@H](CC(N)=O)NC(=O)[C@@H](NC(=O)[C@@H](N)Cc3ccccc3)C(C)C)C(=O)NCC(=O)N[C@@H](CO)C(=O)N[C@@H](Cc3cnc[nH]3)C(=O)N[C@@H](CC(C)C)C(=O)N[C@@H](C(C)C)C(=O)N[C@@H](CCC(=O)O)C(=O)N[C@@H](C)C(=O)N[C@@H](CC(C)C)C(=O)N[C@@H](Cc3ccc(O)cc3)C(=O)N[C@@H](CC(C)C)C(=O)N[C@@H](C(C)C)C(=O)N[C@H](C(=O)NCC(=O)N[C@@H](CCC(=O)O)C(=O)N[C@@H](CCCNC(=N)N)C(=O)NCC(=O)N[C@@H](Cc3ccccc3)C(=O)N[C@@H](Cc3ccccc3)C(=O)N[C@@H](Cc3ccc(O)cc3)C(=O)N[C@H](C(=O)N3CCC[C@H]3C(=O)N[C@@H](CCCCN)C(=O)N[C@@H](C)C(=O)O)[C@@H](C)O)CSSC[C@@H](C(=O)N[C@@H](CC(N)=O)C(=O)O)NC(=O)[C@H](Cc3ccc(O)cc3)NC(=O)[C@H](CC(N)=O)NC(=O)[C@H](CCC(=O)O)NC(=O)[C@H](CC(C)C)NC(=O)[C@H](CCC(N)=O)NC(=O)[C@H](Cc3ccc(O)cc3)NC(=O)[C@H](CC(C)C)NC(=O)[C@H](CO)NC2=O)NC1=O)C(C)C [Regular iletin II (Insulin injection, USP Purified pork)] | inactive: 0.953
C[C@H](CCC(=O)NCCS(=O)(=O)O)[C@H]1CC[C@H]2[C@@H]3[C@H](O)C[C@@H]4C[C@H](O)CC[C@]4(C)[C@H]3C[C@H](O)[C@]12C [Taurocholic acid, sodium salt hydrate] | inactive: 0.91
O=C([O-])[C@H](O)[C@@H](O)[C@H](O)[C@H](O)CO.OC[C@H]1O[C@@](CO)(O[C@H]2O[C@H](CO)[C@@H](O)[C@H](O)[C@H]2O)[C@@H](O)[C@@H]1O.OC[C@H]1O[C@@](CO)(O[C@H]2O[C@H](CO)[C@@H](O)[C@H](O)[C@H]2O)[C@@H](O)[C@@H]1O.OC[C@H]1O[C@@](CO)(O[C@H]2O[C@H](CO)[C@@H](O)[C@H](O)[C@H]2O)[C@@H](O)[C@@H]1O.OC[C@H]1O[C@@](CO)(O[C@H]2O[C@H](CO)[C@@H](O)[C@H](O)[C@H]2O)[C@@H](O)[C@@H]1O.OC[C@H]1O[C@@](CO)(O[C@H]2O[C@H](CO)[C@@H](O)[C@H](O)[C@H]2O)[C@@H](O)[C@@H]1O.[Fe+3].[Fe+3].[Na+].[O-2].[O-2].[O-2] [Sodium ferric gluconate] | inactive: 0.511
CCOCCn1c(N2CCCN(C)CC2)nc2ccccc21 [Emedastine difumarate] | inactive: 1.01
CC[C@H](C)C(=O)O[C@H]1C[C@H](O)C=C2C=C[C@H](C)[C@H](CC[C@@H](O)C[C@@H](O)CC(=O)O)[C@H]21 [Pravastatin sodium] | inactive: 0.955
Cc1nccn1CC1CCc2c(c3ccccc3n2C)C1=O (stereo unspecified) [Ondansetron HCl] | inactive: 0.717
Nc1c(/N=N/c2ccc(-c3ccc(/N=N/c4cc(S(=O)(=O)O)c5ccccc5c4N)cc3)cc2)cc(S(=O)(=O)O)c2ccccc12 [Congo red] | inactive: 1.21
CC(=O)NC[C@H]1CN(c2ccc(N3CCOCC3)c(F)c2)C(=O)O1 [Linezolid] | inactive: 0.862
COc1ccc2c(c1)c(CC(=O)OCC(=O)O)c(C)n2C(=O)c1ccc(Cl)cc1 [Acemetacin] | inactive: 0.844
COc1ccc2cc3[n+](cc2c1OC)CCc1cc2c(cc1-3)OCO2 [Berberine] | active: 1.64
COc1ccc2cc3[n+](cc2c1OC)CCc1cc2c(cc1-3)OCO2 [Berberine bisulfate] | inactive: 1.47

Part of the list above, as tab-separated lines.
Structure (SMILES)	cell-surface Lgr5 expression
O=c1[nH]c(=O)n([C@H]2C[C@H](O)[C@@H](CO)O2)cc1C(F)(F)F [Trifluridine]	inactive: 0.463
Cc1cccc(Nc2ccncc2S(=O)(=O)NC(=O)NC(C)C)c1 [Torsemide]	inactive: 1.04
CC[C@H](C)[C@H](NC(=O)CN)C(=O)N[C@H](C(=O)N[C@@H](CCC(=O)O)C(=O)N[C@@H](CCC(N)=O)C(=O)N[C@H]1CSSC[C@@H]2NC(=O)[C@H](C(C)C)NC(=O)[C@H](CO)NC(=O)[C@H](C)NC(=O)[C@H](CSSC[C@H](NC(=O)[C@H](CC(C)C)NC(=O)[C@H](Cc3cnc[nH]3)NC(=O)[C@H](CCC(N)=O)NC(=O)[C@H](CC(N)=O)NC(=O)[C@@H](NC(=O)[C@@H](N)Cc3ccccc3)C(C)C)C(=O)NCC(=O)N[C@@H](CO)C(=O)N[C@@H](Cc3cnc[nH]3)C(=O)N[C@@H](CC(C)C)C(=O)N[C@@H](C(C)C)C(=O)N[C@@H](CCC(=O)O)C(=O)N[C@@H](C)C(=O)N[C@@H](CC(C)C)C(=O)N[C@@H](Cc3ccc(O)cc3)C(=O)N[C@@H](CC(C)C)C(=O)N[C@@H](C(C)C)C(=O)N[C@H](C(=O)NCC(=O)N[C@@H](CCC(=O)O)C(=O)N[C@@H](CCCNC(=N)N)C(=O)NCC(=O)N[C@@H](Cc3ccccc3)C(=O)N[C@@H](Cc3ccccc3)C(=O)N[C@@H](Cc3ccc(O)cc3)C(=O)N[C@H](C(=O)N3CCC[C@H]3C(=O)N[C@@H](CCCCN)C(=O)N[C@@H](C)C(=O)O)[C@@H](C)O)CSSC[C@@H](C(=O)N[C@@H](CC(N)=O)C(=O)O)NC(=O)[C@H](Cc3ccc(O)cc3)NC(=O)[C@H](CC(N)=O)NC(=O)[C@H](CCC(=O)O)NC(=O)[C@H](CC(C)C)NC(=O)[C@H](CCC(N)=O)NC(=O)[C@H](Cc3ccc(O)cc3)NC(=O)[C@H](CC(C)C)NC(=O)[C@H](CO)NC2=O)NC1=O)C(C)C [Regular iletin II (Insulin injection, USP Purified pork)]	inactive: 0.953
C[C@H](CCC(=O)NCCS(=O)(=O)O)[C@H]1CC[C@H]2[C@@H]3[C@H](O)C[C@@H]4C[C@H](O)CC[C@]4(C)[C@H]3C[C@H](O)[C@]12C [Taurocholic acid, sodium salt hydrate]	inactive: 0.91
Nc1c(/N=N/c2ccc(-c3ccc(/N=N/c4cc(S(=O)(=O)O)c5ccccc5c4N)cc3)cc2)cc(S(=O)(=O)O)c2ccccc12 [Congo red]	inactive: 1.21
